Measurements from PubChem BioAssay AID445 (National Center for Advancing Translational Sciences (NCATS), 2006).
This is one part of the list. The main result of the screen is listed elsewhere. These columns were measured beside it and carry no call. The list favours compounds with an active or inconclusive main result. Words in brackets tell the shape of the fitted curve; partial curves, single points and poor fits give uncertain potencies.

Assay: IkB Signaling
Conditions: ABC-DLBCL IkBa-CBG/CBR dual luciferase ratio (green luciferase fused to IkBa over red control in OCI-Ly3 lymphoma cells), 4 h; measured here: control luc red channel unless noted
In short: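 Curves were fitted separately to fusion (green), unfused (red) and ratio luminescence, then classed by r2, magnitude and activity. Cells: OCI-Ly3, 4 h compound plus doxycycline at 37C; 10 uM MG-132 defined full response.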

Compound	AC50
Cc1ccc(NC(=O)CSc2nc(-c3ccccc3Cl)nc3cc(=O)[nH]n23)c(C)c1	20 µM [falling, single point]
COC(=O)c1c(C)nn(-c2ccc(F)cc2)c1-n1cccc1	39.8 µM [falling, single point]
Nc1ccccc1C(=O)Nc1cccc(C(=O)O)c1	2.51 µM [falling, full curve]
O=C(CCCn1c(=S)[nH]c2ccc(Br)cc2c1=O)N1CCN(c2ccccn2)CC1	6.31 µM [falling, partial curve]
COc1cccc(N2CCN(C(=O)c3ccc(NC(=O)c4nsc5ccccc45)cc3)CC2)c1	0.0631 µM [falling, full curve]
COc1ccc(NC(=O)c2ccco2)cc1NC(=O)COc1ccc(Cl)cc1C	1.58 µM [rising, partial curve]
Cc1ccc(C(=O)NCc2ccc(F)cc2)cc1NC(=O)c1nsc2ccccc12	15.8 µM [falling, partial curve, poor fit]
CCN1C=CC(=C2C(=O)c3ccccc3C2=O)C=C1	25.1 µM [falling, single point]
CCOCCCn1c(=N)c(C(=O)NCC2CCCO2)cc2c(=O)n3cccc(C)c3nc21 (stereo not drawn)	0.631 µM [falling, full curve, poor fit]
COC(=O)C1CCN(S(=O)(=O)c2cc3c4c(c2)CC(=O)N4CCC3)CC1	6.31 µM [rising, single point]
Cc1cccc(NS(=O)(=O)c2ccc3c(c2)CCN3C(=O)C2CCC2)c1	25.1 µM [falling, partial curve]
O=C(Nc1cccc(F)c1)c1ccc(-c2ccccc2)s1	0.0631 µM [falling, full curve]
O=C(c1cccs1)N1CCCc2cc(NS(=O)(=O)c3ccc(F)cc3F)ccc21	39.8 µM [falling, single point]
Cc1ccc(S(=O)(=O)c2cn(Cc3ccccc3Cl)c3ccc(F)cc3c2=O)cc1	12.6 µM [falling, partial curve]
COc1ccc2c(c1)NC(c1cccnc1)=NC(c1ccc(F)cc1)=N2	39.8 µM [falling, single point]
CC(C)(C)N(Cc1ccccc1)C(=O)CSc1nnc(CNc2ccc(F)cc2)o1	25.1 µM [falling, partial curve]
Cc1ccccc1Nc1c(-c2cccs2)nc2cccc(C)n12	39.8 µM [falling, single point]
O=C(CSc1nc2c([nH]c3ccccc32)c(=O)n1-c1ccc(Cl)cc1)NCC1CCCO1 (stereo not drawn)	3.16 µM [rising, full curve]

Reformatted in CSV form: entries from further up
Compound,AC50
CC(C)(C)N(Cc1ccccc1)C(=O)CSc1nnc(CNc2ccc(F)cc2)o1,"25.1 µM [falling, partial curve]"
Cc1ccccc1Nc1c(-c2cccs2)nc2cccc(C)n12,"39.8 µM [falling, single point]"
O=C(CSc1nc2c([nH]c3ccccc32)c(=O)n1-c1ccc(Cl)cc1)NCC1CCCO1 (stereo not drawn),"3.16 µM [rising, full curve]"
